{"source": "patent US7612035B2", "about": "“Inhibition of mitogen-activated protein kinase (MAPK) pathway: a selective therapeutic strategy against melanoma” (Van Andel Research Institute, priority 2000, dated 2009)", "key": {"[1]": {"system": "MALME-3M", "assay_type": "cell-based, human", "conditions": "by 72 hours"}, "[2]": {"conditions": "cited from earlier work"}}, "note": "At least one compound was matched to its structure with a doubt left. Some results were stated once for a whole list of compounds, not compound by compound.", "data": [{"smiles": "COc1cccc(-c2cc(=O)c3ccccc3o2)c1N", "note": "[PD98059]", "values": [{"measurement": "fraction of the cells undergoing apoptosis", "setting": "[1]", "value": "> 25", "unit": "%"}, {"measurement": "stability in culture medium", "setting": "[2]", "value": "instability"}]}]}
